At least one structure is not confirmed: it was looked up by name or label, or the drawing left a doubt.
Columns and labels:
[1] = test system: anti-FVIII antibody titers; assay: FVIII-specific tolerance with OPLS, OPDS or Dex, rechallenge with free FVIII (FIG. 11); details: s.c. co-administration with FVIII, then s.c. free FVIII
[2] = test system: anti-FVIII titers; assay: Tolerance induction and FVIII re-challenge study (FVIII, FVIII plus OPLS, FVIII plus Dexamethasone); type: in vivo, HA mice; details: co-administered sc with 1 μg FVIII, 4 weekly
Protocol: Tolerance induction studies in HA mice: Breeding pairs of exon 16 knockout transgenic hemophilic mice (HA) were used. All animal studies were conducted in accordance with an approved protocol by the Institutional Animal Use and Care Committee at the University at Buffalo, State University of New York.
Immunization and re-challenge schedule: To delineate whether OPLS mediated reduction of antibody titer is due to immune tolerance or immune suppression, we performed re-challenge experiments. Forty HA mice were pre-treated with FVIII, FVIII plus OPLS or FVIII plus Dexamethasone once-a-week for four consecutive weeks by sc injections of endotoxin free formulation of 1 μg of FVIII alone or with 5 mg OPLS or 200 ng Dexamethasone (Dex) as shown in FIG. 32. The injections were prepared in TRIS buffers containing 25 mM TRIS and 150 mM NaCl at pH 7.5. For OPLS containing formulations, OPLS was added to the buffer and the pH adjusted to 7.5. The appropriate amount of FVIII was added immediately before injection to prevent complexation between FVIII and OPLS pre-injection. […] Total anti-FVIII titer levels were measured by ELISA.
Statistics: Non-parametric one-way ANOVA with Tukey's post hoc analysis was used for the analysis of titer values where appropriate. Student t-test was used for comparing mean intensity of fluorescence (MIF) for flow cytomerty data. […]

With C[C@@H]1C[C@H]2[C@@H]3CCC4=CC(=O)C=C[C@]4(C)[C@@]3(F)[C@@H](O)C[C@]2(C)[C@@]1(O)C(=O)CO [Dexamethasone, reference compound] the “FVIII-specific hypo-responsiveness upon rechallenge” value [1] was “did not” and the “Anti-FVIII antibody response during the pre-treatment stage” value [2] was “reduced”.
